The experiment deals with full-length human D1 dopamine receptor stably expressed in D1 HEK293 cells (human) (UniProt P21728). In words: co-immunoprecipitation with GFP mab from transfected D1-HEK293 cells.

The chains behind the UniProt entries cited, without tags or fusion partners.
UniProt P21728: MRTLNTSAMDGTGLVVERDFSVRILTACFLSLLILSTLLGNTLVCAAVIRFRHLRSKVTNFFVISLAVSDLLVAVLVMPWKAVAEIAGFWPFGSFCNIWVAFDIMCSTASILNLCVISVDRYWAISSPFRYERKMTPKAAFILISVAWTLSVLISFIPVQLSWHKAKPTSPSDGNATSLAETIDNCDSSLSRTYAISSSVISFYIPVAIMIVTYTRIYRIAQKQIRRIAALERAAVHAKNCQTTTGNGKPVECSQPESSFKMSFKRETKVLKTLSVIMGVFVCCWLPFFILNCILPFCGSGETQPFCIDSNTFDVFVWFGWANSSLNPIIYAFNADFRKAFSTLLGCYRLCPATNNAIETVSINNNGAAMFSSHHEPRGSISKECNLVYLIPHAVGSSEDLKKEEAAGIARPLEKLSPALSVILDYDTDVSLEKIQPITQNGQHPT

Results are given in words; binding and its absence hold for the method and conditions named. Binding seen in cells or lysates may run through a third protein. Some results given as binding are weak or reduced against the parent protein; the word gives no strength. Where a sequence is shown, tags or fusion partners need not be part of it.

B1: EGFP-P24 fusion protein (P24/Calcyon tagged at its N-terminus by enhanced green fluorescent protein) (protein, not shown: large carriers)
chain: MVKLGCSFSGKPGKDPGDQDGAAMDSVPLISPLDISQLQPPLPDQVVIKTQTEYQLSSPDQQNFPDLEGQRLNCSHPEEGRRLPTARMIAFAMALLGCVLIMYKAIWYDQFTCPDGFLLRHKICTPLTLEMYYTEMDPERHRSILAAIGAYPLSRKHGTETPAAWGDGYRAAKEERKGPTQAGAAAAATEPPGKPSAKAEKEAARKAAGSAAPPPAQ
Take B1: the binding entry was “binds”.

The record behind these values is patent US20030073818A1.
